Data taken from PubChem BioAssay AID493014 (National Center for Advancing Translational Sciences (NCATS), 2011).
Some of the results follow. The main result of the screen is listed elsewhere. These columns were measured beside it and carry no call. The list favours compounds with an active or inconclusive main result. Potencies come from curve fits of mixed quality, noted in brackets.

Assay: qHTS Assay to Find Inhibitors of Chronic Active B-Cell Receptor Signaling
Conditions: ABC-DLBCL IkBa-CBG/CBR reporter, luminescence ratio (green luciferase fused to IkBa over red control in TMD8 lymphoma cells), 4 h
How it was run: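 TMD8 ABC-DLBCL cells carrying doxycycline-inducible green luciferase fused to IkappaBalpha plus unfused red luciferase were exposed to compounds (up to 46 uM) for 4 hrs at 37C. Activity came from the overlap-corrected green/red luminescence ratio.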

[1] = measured here: CBR red luminescence, cell number
[2] = measured here: IkBa-CBG green luminescence

Row | SMILES | AC50 [1] | AC50 [2]
1 | CC1CCN(C(NC(=O)c2ccco2)C(=O)c2ccccc2)CC1 (stereo unspecified) | 1.12 µM [rising, partial curve, poor fit] | 
2 | COc1ccccc1NC(=S)NC(C)=O | 6.31 µM [falling, partial curve] | 
3 | C[C@]12c3[nH]c4ccc(Cl)cc4c3CCN1C(=O)[C@@H](CC(=O)NCCc1ccccn1)C[C@@H]2C(=O)N1CCCCC1 | 0.326 µM [rising, full curve, poor fit] | 
4 | Cc1ccc(NC(=O)CCCCCC2NC(=O)NC2C)cc1 (stereo unspecified) | 9.2 µM [rising, partial curve, poor fit] | 
5 | Cc1ccc(S(=O)(=O)N(C(=O)c2ccncc2)c2ccc(OC(=O)c3ccncc3)c3ccccc23)cc1 | 16.4 µM [falling, partial curve] | 
6 | O=C(NC(Cc1ccccc1)C(=O)NCCc1ccccn1)c1ccccc1 (stereo unspecified) | 3.98 µM [rising, full curve, poor fit] | 
7 | COc1ccc(S(=O)(=O)N(CCC#N)Cc2ccco2)cc1OC | 1.58 µM [rising, partial curve, poor fit] | 
8 | O=C(CN1CCN(Cc2ccc3c(c2)OCO3)CC1)Nc1ccc(F)cc1 | 23.1 µM [falling, partial curve] | 
9 | COc1cc(-c2cc(N3C(=O)Nc4ccccc4N3O)n[nH]2)cc(OC)c1OC | 1.84 µM [rising, partial curve, poor fit] | 2.59 µM [falling, partial curve, poor fit]
10 | O=C(COc1ccc(Cl)cc1)NCc1nnc(SCC(=O)NCC2CCCO2)o1 (stereo unspecified) | 3.16 µM [falling, single point] | 
11 | COc1cccc(N=Cc2c(O)n(-c3cccc(C)n3)c(=O)c3ccccc23)c1 | 3.66 µM [falling, full curve, poor fit] | 
12 | O=C(Nc1cccc(-c2cn3cccnc3n2)c1)c1ccco1 | 12.6 µM [falling, single point] | 
13 | CCCc1ccc(-c2cc(N)n[nH]2)cc1 | 3.66 µM [rising, partial curve, poor fit] | 
14 | CC(CC(=O)Nc1cc(S(=O)(=O)N2CCOCC2)ccc1OCC(F)(F)F)c1ccccc1 (stereo unspecified) | 29.1 µM [rising, partial curve, poor fit] | 
15 | Cc1onc(-c2ccccc2Cl)c1C(=O)Nc1ccc(S(=O)(=O)Nc2nccs2)cc1 | 7.94 µM [falling, partial curve, poor fit] | 
16 | COc1cc(C(C(=O)NC2CCCCC2)N(CCN2CCOCC2)C(=O)C2COc3ccccc3O2)cc(OC)c1OC (stereo unspecified) | 35.5 µM [rising, single point] | 
17 | C/C(=N\NC(=O)c1n[nH]c2c1CCC2)c1cccs1 | 12.6 µM [falling, partial curve] | 35.5 µM [falling, single point]
18 | Cc1ccc(-c2nnn(CC(=O)O)n2)cc1 | 0.651 µM [falling, single point] | 
19 | CCN1C(=O)S/C(=C/c2cn(C)c3ccccc23)C1=O | 1.16 µM [rising, partial curve, poor fit] | 
20 | O/N=C/c1cn(-c2ccccc2)nc1-c1ccc2c(c1)OCCO2 | 2.51 µM [rising, partial curve, poor fit] | 
21 | CCOc1ccc(OCc2ccc(C(=O)NN)o2)cc1 | 5.62 µM [falling, full curve] | 

Row | SMILES | AC50 [1] | AC50 [2]
22 | CC(=O)c1cc2c(cc1NC(=O)CCC1CCCC1)OCO2 | 20.6 µM [rising, partial curve, poor fit] | 
23 | Cn1c(SCC(=O)c2ccc(F)cc2)nnc1-c1ccccc1N | 12.6 µM [falling, partial curve] | 
24 | O=C(Nc1ccccc1)C(=O)Nc1ccccn1 | 0.398 µM [falling, full curve] | 
25 | O=C(OCC(=O)N1CCc2ccccc21)c1ccccn1 | 35.5 µM [falling, single point] | 
26 | CCCCCc1ccc(-c2ccc(/C=C/C(=O)O)cc2)nc1 | 0.82 µM [falling, full curve] | 
27 | O=C(NCC1CCCN(C(=O)c2cscn2)C1)c1ccc(-c2ccccc2)cc1 (stereo unspecified) | 12.6 µM [rising, partial curve] | 
28 | COc1cc(C(=O)COC(=O)c2cccs2)cc(OC)c1OC | 6.51 µM [rising, single point] | 
29 | O=C(N/N=C\c1cc2c(cc1Cl)OCO2)c1cccs1 | 20 µM [falling, partial curve, poor fit] | 
30 | COc1ccc(C(=O)Nc2ccccc2C(=O)Nc2ccc(C(=O)O)cc2)cc1 | 11.2 µM [falling, partial curve] | 
31 | CC1=C(C(=O)Nc2ccc(C(=O)N3CCN(c4cccc(Cl)c4)CC3)cc2)SCCO1 | 6.31 µM [falling, partial curve, poor fit] | 
32 | COc1ccc(NS(=O)(=O)c2cc(N=Nc3c(O)[nH]c(=O)[nH]c3=O)ccc2Cl)cc1 | 6.51 µM [rising, partial curve, poor fit] | 
33 | Cc1nsc2nc3c(F)c(F)c(F)c(F)c3cc12 | 35.5 µM [falling, single point] | 11.2 µM [rising, partial curve, poor fit]
34 | CN(C)S(=O)(=O)c1ccc(Cl)c(NC(=O)COC(=O)CCC(=O)c2cccs2)c1 | 0.562 µM [rising, full curve, poor fit] | 
35 | COc1cccc(-c2csc(N3CCN(C(=O)NC45CC6CC(CC(C6)C4)C5)CC3)n2)c1 | 23.1 µM [rising, partial curve, poor fit] | 
36 | COc1ccccc1NC(=O)CN1CCC(c2nc3ccc(C)cc3[nH]2)CC1 | 3.55 µM [rising, partial curve, poor fit] | 
37 | CCOC(=O)C(=NC(C)CC)NNc1cccc(C(F)(F)F)c1 (stereo unspecified) | 6.51 µM [rising, single point] | 
38 | CCOc1ccc(NC(=O)c2nc(SCC)ncc2Cl)cc1 | 35.5 µM [rising, single point] | 
39 | C=CCSc1nnc(NC(=O)c2c(CC)noc2C)s1 | 20.6 µM [falling, single point] | 
40 | Cc1nc2cc(NCc3nc4ccccc4n3Cc3ccccc3)ccc2n1C | 11.2 µM [falling, partial curve, poor fit] | 
41 | O=[N+]([O-])c1ccc(-c2nc(-c3cccs3)c(-c3cccs3)[nH]2)cc1 | 8.91 µM [falling, partial curve] | 
42 | COc1ccc(C/C(N)=N/OC(=O)c2cccc([N+](=O)[O-])c2)cc1 | 9.2 µM [rising, partial curve, poor fit] | 

Some of the entries above, set out differently.
Row	SMILES	AC50 [1]	AC50 [2]
11	COc1cccc(N=Cc2c(O)n(-c3cccc(C)n3)c(=O)c3ccccc23)c1	3.66 µM [falling, full curve, poor fit]	
13	CCCc1ccc(-c2cc(N)n[nH]2)cc1	3.66 µM [rising, partial curve, poor fit]	

(cont.)

Row | SMILES | AC50 [1] | AC50 [2]
43 | CN(C(=O)Nc1ccccc1)C1CCCCC1 | 3.98 µM [rising, full curve, poor fit] | 
44 | Cc1c(C(=O)C(=O)NCC2CCCO2)c2ccccc2n1C (stereo unspecified) | 14.1 µM [rising, single point] | 
45 | O=[N+]([O-])c1cccc(S(=O)(=O)N/N=C/c2ccc(O)cc2)c1 | 22.4 µM [falling, partial curve, poor fit] | 
46 | O=C(C#Cc1ccccc1)Nc1ccccc1F | 14.1 µM [falling, partial curve] | 
47 | O=S(=O)(c1ccc2oc3ccccc3c2c1)N1CCOCC1 | 4.11 µM [rising, partial curve, poor fit] | 
48 | O=c1c2ccccc2c2ccccc2c(=O)n1Cc1cccnc1 | 4.11 µM [falling, partial curve, poor fit] | 
49 | Cc1nnc(SCCC(C)C)[nH]c1=O | 35.5 µM [falling, single point] | 
50 | CCSc1nnc(NC(=O)C2CCCN(S(=O)(=O)c3cnc[nH]3)C2)s1 (stereo unspecified) | 13 µM [falling, partial curve] | 
51 | COc1ccc(-n2nc(C(=O)NCC(=O)N3CCN(c4ccccn4)CC3)c3ccccc3c2=O)cc1OC | 3.55 µM [rising, partial curve] | 
52 | CCOC(=O)c1nc(Nc2ccc(Nc3ccccc3)cc2)c2ccccc2n1 | 11.2 µM [falling, single point] | 
53 | COc1ccc(-c2ccc(SCC(=O)NC3CCCCC3)nn2)cc1OC | 0.794 µM [falling, full curve, poor fit] | 
54 | N#CCCN(Cc1cccnc1)C(=O)Nc1ccccc1 | 6.51 µM [falling, single point] | 
55 | O=C(NCc1cccs1)C1CC(c2ccc(Cl)c(Cl)c2)=NO1 (stereo unspecified) | 7.08 µM [rising, partial curve, poor fit] | 
56 | Cc1ccccc1NC(=O)Cc1nc(COC(=O)c2cc([N+](=O)[O-])ccc2N)cs1 | 15.8 µM [falling, partial curve, poor fit] | 
57 | O=C(Nc1ccccc1-c1nnn(CC(=O)N2CCCc3ccccc32)n1)c1ccco1 | 22.4 µM [falling, single point] | 
58 | COc1ccc(C(O)c2nccn2Cc2ccccc2)cc1OC (stereo unspecified) | 12.6 µM [falling, partial curve] | 
59 | CC(C)C1CC(CCNCc2ccc(N(C)C)cc2)(c2ccccc2)CCO1 (stereo unspecified) | 15.8 µM [falling, single point] | 
60 | O=C(c1ccco1)n1nc(-c2ccco2)nc1SCc1ccccc1 | 5.17 µM [falling, partial curve] | 
61 | COc1cc(-n2nc(C)c3c2OC(N)=C(C#N)C3c2ccccc2)c(Cl)c(Br)c1O (stereo unspecified) | 18.4 µM [falling, single point] | 
62 | Cc1ccc2cc(C)c3nnc(SCC(=O)Nc4nc5c(s4)CCCC5)n3c2c1C | 0.891 µM [falling, full curve, poor fit] | 
63 | COc1ccc(C(=O)N/N=C\c2ccoc2)cc1 | 2 µM [falling, full curve, poor fit] | 
